Test results: PubChem BioAssay (NCATS)
Inconclusive means that the source gave no clear call. Such entries were picked first, then a sample of the others. Where the call is inconclusive, the potency comes from a doubtful curve fit. Calls of active or inactive are those of the source. Calls come from the whole dose curve; as a rule, active = well fitted cell-killing curve with a large enough effect; inconclusive = small, poorly fitted or top-dose-only effect, or effect the other way; inactive = no such curve, though single readings can be large or run the other way.

What was measured:
[1] = Quantitative High-Throughput drug screen in 47 multiple myeloma cell lines against the NCATS MIPE library collection: FR4_PLB cell viability assay (AID 1918924; note: nearly all actives have a fitted effect of over 35% in size); conditions: FR4_PLB myeloma cells viability, CellTiter-Glo ATP, 48 h; viability (% of DMSO control): at 45.8 µM (top of the series)
Summary of the method: (§1)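 Relative luminescence from CellTiter-Glo served as the viability signal, referenced to DMSO-treated (100%) and cell-free medium (0%) controls. Treatment lasted 48 hours at 37C with 500 cells per well.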

[2] = Quantitative High-Throughput drug screen in 47 multiple myeloma cell lines against the NCATS MIPE library collection: Delta47_JCRB cell viability assay (AID 1918925; note: nearly all actives have a fitted effect of over 45% in size); conditions: Delta47 myeloma viability, CellTiter-Glo ATP, 48 h; viability (% of DMSO): at 45.8 µM (top of the series)
Summary of the method: (§2)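 We plated 500 myeloma cells per well, pinned in MIPE 4.0 compounds, and incubated for 48 hours at 37C. ATP was then quantified with CellTiter-Glo, with DMSO and media-only wells defining 100% and 0%.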

[3] = Quantitative High-Throughput drug screen in 47 multiple myeloma cell lines against the NCATS MIPE library collection: EJM_DSMZ cell viability assay (AID 1918926; note: nearly all actives have a fitted effect of over 30% in size); conditions: EJM myeloma cell viability, CellTiter-Glo ATP, 48 h; viability, % of control: at 45.8 µM (top of the series)
Summary of the method: as §2

[4] = Quantitative High-Throughput drug screen in 47 multiple myeloma cell lines against the NCATS MIPE library collection: AMO1_DSMZ cell viability assay (AID 1918927; note: nearly all actives have a fitted effect of over 30% in size); conditions: AMO1 myeloma cells viability, CellTiter-Glo ATP luminescence, 48 h; viability, % of DMSO: at 45.8 µM (top of the series)
Summary of the method: as §2

[5] = Quantitative High-Throughput drug screen in 47 multiple myeloma cell lines against the NCATS MIPE library collection: ARP1_JJKsccF8 cell viability assay (AID 1918928; note: nearly all actives have a fitted effect of over 40% in size); conditions: ARP1 myeloma cells viability, CellTiter-Glo ATP, 48 h; viability: at 45.8 µM (top of the series)
Summary of the method: (§3)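 500 cells/well; MIPE 4.0 library pinned in; 48 h, 37 °C, 5% CO2; CellTiter-Glo ATP luminescence. Controls: DMSO = 100% viability, medium only = 0%.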

[6] = Quantitative High-Throughput drug screen in 47 multiple myeloma cell lines against the NCATS MIPE library collection: ARD_JJKsccE7 cell viability assay (AID 1918929); conditions: ARD myeloma cell line viability, CellTiter-Glo, 48 h; viability: at 45.8 µM (top of the series)
Summary of the method: as §2

[7] = Quantitative High-Throughput drug screen in 47 multiple myeloma cell lines against the NCATS MIPE library collection: Karpas620_DSMZ cell viability assay (AID 1918959); conditions: Karpas620 myeloma viability, CellTiter-Glo ATP luminescence, 48 h; viability (% of DMSO): at 45.8 µM (top of the series); note: nearly all actives have a fitted effect of over 30% in size
Summary of the method: as §1

[8] = Quantitative High-Throughput drug screen in 47 multiple myeloma cell lines against the NCATS MIPE library collection: Karpas417_ECACC cell viability assay (AID 1918961); conditions: Karpas417 myeloma viability, CellTiter-Glo ATP luminescence, 48 h; viability (% of DMSO): at 45.8 µM (top of the series)
Summary of the method: as §1

[9] = Quantitative High-Throughput drug screen in 47 multiple myeloma cell lines against the NCATS MIPE library collection: KMM1_JCRB cell viability assay (AID 1918960); conditions: KMM1 myeloma viability, CellTiter-Glo ATP luminescence, 48 h; viability (% of DMSO): at 45.8 µM (top of the series); note: nearly all actives have a fitted effect of over 30% in size
Summary of the method: as §3
Potency is the fitted concentration of half-maximal effect.

CC(C)(Sc1ccc(CCN(CCCCC2CCCCC2)C(=O)NC2CCCCC2)cc1)C(=O)O
inactive: Potency [4] | Potency [6] | Potency [7]
inconclusive: Potency [1] 10.5 µM [cytotoxic, single point] | Potency [2] 0.0042 µM [cytotoxic, full curve, poor fit] | Potency [3] 23.5 µM [cytotoxic, single point] | Potency [5] 18.7 µM [cytotoxic, partial curve] | Potency [8] 26.4 µM [rising, single point]

CC(C)[C@H](C(=O)Nc1ccc(C(=O)NO)cc1)c1ccccc1
active: Potency [1] 0.372 µM | Potency [2] 0.372 µM | Potency [3] 1.87 µM | Potency [4] 0.469 µM | Potency [8] 0.469 µM

O=C1[C@H](Cc2ccc(O)cc2)N2C(=O)CCN(C(=O)NCc3ccccc3)[C@H]2CN1Cc1cccc2ccccc12
inactive: Potency [9] | Potency [8]
inconclusive: Potency [1] 5.26 µM [cytotoxic, full curve] | Potency [2] 4.69 µM [cytotoxic, partial curve] | Potency [3] 5.26 µM [cytotoxic, full curve] | Potency [4] 0.059 µM [cytotoxic, full curve, poor fit] | Potency [6] 0.0012 µM [cytotoxic, full curve, poor fit]
active: Potency [5] 4.18 µM

CN(C)CCC=C1c2ccccc2C=Cc2ccccc21
inconclusive: Potency [1] 14.8 µM [cytotoxic, partial curve, poor fit] | Potency [2] 16.6 µM [cytotoxic, partial curve, poor fit] | Potency [5] 16.6 µM [cytotoxic, partial curve, poor fit] | Potency [8] 11.8 µM [rising, partial curve, poor fit]
active: Potency [4] 0.0235 µM
inactive: Potency [3] | Potency [6] | Potency [9]

CC(=O)N[C@@H]1[C@H](O[C@@H]2c3ccc(c(Cl)c3)Oc3cc4cc(c3O[C@H]3O[C@H](CO)[C@@H](O)[C@H](O)[C@H]3NC(=O)CCCCCCCC(C)C)Oc3ccc(cc3Cl)C[C@H]3NC(=O)[C@H](N)c5ccc(O)c(c5)Oc5cc(O)cc(c5)[C@H](NC3=O)C(=O)N[C@H]4C(=O)N[C@H]3C(=O)N[C@@H]2C(=O)N[C@@H](C(=O)O)c2cc(O)cc(O[C@H]4O[C@H](CO)[C@@H](O)[C@H](O)[C@H]4O)c2-c2cc3ccc2O)O[C@H](CO)[C@@H](O)[C@@H]1O
inconclusive: Potency [2] 3.72 µM [rising, partial curve, poor fit] | Potency [8] 1.32 µM [cytotoxic, partial curve, poor fit]
inactive: Potency [1] | Potency [3] | Potency [4] | Potency [5]

CC(=O)OCCN1C(=O)c2c(C)nc3ccc(S(=O)(=O)N4CCOCC4)cc3c2C1=O
inactive: Potency [1] | Potency [2] | Potency [3] | Potency [4] | Potency [7] | Potency [9]
active: viability (% of DMSO) [8] 109%

C[C@]1(CO)CN(c2cc(C(=O)Nc3ccc4c(c3)-c3c(c(C(N)=O)nn3-c3ccc(F)cc3)CC4)c(Cl)cn2)C[C@@]1(C)CO
inconclusive: Potency [1] 33.2 µM [cytotoxic, single point] | Potency [3] 8.33 µM [cytotoxic, partial curve] | Potency [4] 1.87 µM [cytotoxic, full curve, poor fit] | Potency [5] 4.69 µM [cytotoxic, full curve, poor fit] | Potency [6] 13.2 µM [cytotoxic, partial curve]
active: Potency [2] 9.35 µM | Potency [9] 0.209 µM | Potency [8] 2.64 µM

3 compounds already listed, ordered by formula weight, descending.
CC(=O)N[C@@H]1[C@H](O[C@@H]2c3ccc(c(Cl)c3)Oc3cc4cc(c3O[C@H]3O[C@H](CO)[C@@H](O)[C@H](O)[C@H]3NC(=O)CCCCCCCC(C)C)Oc3ccc(cc3Cl)C[C@H]3NC(=O)[C@H](N)c5ccc(O)c(c5)Oc5cc(O)cc(c5)[C@H](NC3=O)C(=O)N[C@H]4C(=O)N[C@H]3C(=O)N[C@@H]2C(=O)N[C@@H](C(=O)O)c2cc(O)cc(O[C@H]4O[C@H](CO)[C@@H](O)[C@H](O)[C@H]4O)c2-c2cc3ccc2O)O[C@H](CO)[C@@H](O)[C@@H]1O
inconclusive: Potency [2] 3.72 µM [rising, partial curve, poor fit] | Potency [8] 1.32 µM [cytotoxic, partial curve, poor fit]
inactive: Potency [1] | Potency [3] | Potency [4] | Potency [5]

C[C@]1(CO)CN(c2cc(C(=O)Nc3ccc4c(c3)-c3c(c(C(N)=O)nn3-c3ccc(F)cc3)CC4)c(Cl)cn2)C[C@@]1(C)CO
inconclusive: Potency [1] 33.2 µM [cytotoxic, single point] | Potency [3] 8.33 µM [cytotoxic, partial curve] | Potency [4] 1.87 µM [cytotoxic, full curve, poor fit] | Potency [5] 4.69 µM [cytotoxic, full curve, poor fit] | Potency [6] 13.2 µM [cytotoxic, partial curve]
active: Potency [2] 9.35 µM | Potency [9] 0.209 µM | Potency [8] 2.64 µM

CC(=O)OCCN1C(=O)c2c(C)nc3ccc(S(=O)(=O)N4CCOCC4)cc3c2C1=O
inactive: Potency [1] | Potency [2] | Potency [3] | Potency [4] | Potency [7] | Potency [9]
active: viability (% of DMSO) [8] 109%

(more compounds)

O=c1[nH]c(-c2ccc(C(F)(F)F)cc2)nc2c1CSCC2
inconclusive: Potency [2] 26.4 µM [cytotoxic, single point] | Potency [3] 18.7 µM [cytotoxic, partial curve, poor fit] | Potency [5] 18.7 µM [cytotoxic, partial curve, poor fit] | Potency [8] 18.7 µM [rising, partial curve, poor fit]
inactive: Potency [1] | Potency [4]

COc1nc(N)nc2c1ncn2[C@@H]1O[C@H](CO)[C@@H](O)[C@@H]1O
inconclusive: Potency [3] 2.09 µM [cytotoxic, full curve, poor fit] | Potency [6] 0.001 µM
inactive: Potency [1] | Potency [2] | Potency [4] | Potency [5] | Potency [7] | Potency [8]

O=C1NC(O)CCN1[C@@H]1O[C@H](CO)[C@H](O)[C@H]1O (some centres undefined)
inconclusive: Potency [4] 0.0023 µM [cytotoxic, full curve, poor fit]
inactive: Potency [1] | Potency [2] | Potency [3] | Potency [6] | Potency [8]

Fc1ccc([C@@H]2CCNC[C@H]2COc2ccc3c(c2)OCO3)cc1
inactive: Potency [3] | Potency [6]
inconclusive: Potency [1] 3.72 µM [cytotoxic, partial curve, poor fit] | Potency [2] 1.05 µM [cytotoxic, full curve, poor fit] | Potency [4] 3.32 µM [cytotoxic, full curve, poor fit] | Potency [5] 18.7 µM [cytotoxic, partial curve] | Potency [9] 0.0026 µM [cytotoxic, full curve, poor fit] | Potency [8] 9.35 µM [rising, partial curve]

O=C(O)[C@H](Cc1c[nH]c2ccccc12)N1C(=O)c2ccccc2C1=O
inconclusive: Potency [2] 54 µM [cytotoxic, single point] | Potency [6] 0.0034 µM [rising, full curve, poor fit] | Potency [8] 19.1 µM [cytotoxic, full curve, poor fit]
inactive: Potency [1] | Potency [3] | Potency [4] | Potency [5] | Potency [9]

CC(C)(O)CCc1ccc(OCc2cc(-c3cccc(OC(F)F)c3)c3ncccc3c2)cc1
inactive: Potency [1] | Potency [3] | Potency [4] | Potency [6] | Potency [9]
inconclusive: Potency [2] 37.2 µM [cytotoxic, single point] | Potency [5] 37.2 µM [cytotoxic, single point]

COc1ccccc1-c1cccc(-c2c(O)c3cc(C#N)c(Cl)cc3[nH]c2=O)c1
inactive: Potency [1] | Potency [3]
inconclusive: Potency [2] 67.9 µM [cytotoxic, single point] | Potency [4] 38.2 µM [cytotoxic, partial curve] | Potency [6] 42.9 µM [cytotoxic, partial curve, poor fit] | Potency [7] 48.1 µM [cytotoxic, single point] | Potency [9] 15.2 µM [cytotoxic, partial curve] | Potency [8] 0.0048 µM [cytotoxic, full curve, poor fit]

COc1ccc2c(OCc3nnc4ccc(-c5ccccc5)nn34)ccnc2c1
inconclusive: Potency [3] 0.001 µM [cytotoxic] | Potency [6] 0.0047 µM [cytotoxic, full curve, poor fit] | Potency [8] 8.33 µM [cytotoxic, full curve, poor fit]
inactive: Potency [1] | Potency [2] | Potency [4] | Potency [5] | Potency [7]

Cc1c(C(=O)NN2CCCCC2)nn(-c2ccc(Cl)cc2Cl)c1-c1ccc(Cl)cc1
inactive: Potency [3]
active: Potency [6] 16.6 µM
inconclusive: Potency [1] 23.5 µM [cytotoxic, partial curve] | Potency [2] 37.2 µM [cytotoxic, single point] | Potency [5] 37.2 µM [cytotoxic, single point] | Potency [8] 20.9 µM [cytotoxic, partial curve, poor fit]

Nc1nccc(-c2ccc3noc(-c4ccc(Cl)cc4)c3c2)n1
inconclusive: Potency [1] 26.4 µM [cytotoxic, single point] | Potency [2] 20.9 µM [cytotoxic, partial curve] | Potency [4] 33.2 µM [cytotoxic, single point] | Potency [5] 14.8 µM [cytotoxic, partial curve, poor fit] | Potency [9] 18.7 µM [cytotoxic, partial curve]
inactive: Potency [6]

CNC[C@@H](O)[C@@H](O)[C@H](O)[C@H](O)CO
inactive: Potency [3] | Potency [5] | Potency [6] | Potency [7]
inconclusive: Potency [1] 2.35 µM [rising, full curve, poor fit] | Potency [2] 0.0042 µM [rising, full curve, poor fit] | Potency [9] 0.148 µM [cytotoxic, full curve, poor fit]

COc1ccc2cc1Oc1ccc(cc1)C[C@H]1c3cc(c(OC)cc3CCN1C)Oc1c(OC)c(OC)cc3c1[C@H](C2)N(C)CC3
inconclusive: Potency [1] 26.4 µM [cytotoxic, partial curve] | Potency [2] 26.4 µM [cytotoxic, partial curve, poor fit] | Potency [3] 18.7 µM [cytotoxic, partial curve, poor fit] | Potency [5] 8.33 µM [cytotoxic, partial curve, poor fit] | Potency [8] 5.9 µM [cytotoxic, partial curve, poor fit]
active: Potency [6] 6.62 µM | Potency [7] 5.26 µM | Potency [9] 5.9 µM

C[C@H](CCC(=O)O)[C@H]1CC[C@H]2[C@H]3[C@@H](CC[C@]12C)[C@@]1(C)CC[C@@H](O)C[C@H]1C[C@@H]3O
active: Potency [5] 1.48 µM
inconclusive: Potency [1] 33.2 µM [cytotoxic, single point] | Potency [2] 16.6 µM [cytotoxic, partial curve, poor fit] | Potency [4] 33.2 µM [cytotoxic, single point] | Potency [6] 37.2 µM [cytotoxic, single point] | Potency [7] 23.5 µM [cytotoxic, single point] | Potency [9] 37.2 µM [cytotoxic, single point] | Potency [8] 37.2 µM [cytotoxic, partial curve, poor fit]
